The list shows only some results of the screen, not a fair sample: it gathers tests that were run many times, whatever their T/C, doses with no T/C, and many T/C values between a quarter and a half above the control. Other doses and runs of a compound stand elsewhere. T/C: endpoint of the treated group in % of that of the vehicle group. Schedules are NCI's codes, taken here to give the interval after Q, in days (D) or hours (H), and the number of doses after X. Some T/C values carry the count of animals alive at the toxicity check (mostly the fifth day); without a count, all were alive then. Some doses have a count of surviving animals in place of a T/C: the source holds a T/C of zero for them, seemingly a mark for toxic or unscored doses. Survivors were counted at the toxicity check, usually on the fifth day, unless a day is given; later deaths do not show.
System: nude mice, A549 intrarenal xenograft, tumor weight change
Assay: NCI In Vivo Anticancer Drug Screen. Data for tumor model A549 Human Adenocarcinoma of Lung with characteristics of Type II Alveolar Epithelial cells (intrarenal inoculation) in NU/NU BALB/C (nude) mice
Settings: T/C endpoint: mean tumor weight change, schedule: Q04DX003 (ip), higher T/C = larger tumour; for T/C: evaluated on day 12
Experimental: The antitumor activity of compounds was measured in mice bearing transplantable tumors. Survival or tumor size were measured and the results are expressed as the measurement made in the treated group (T) divided by the measurement made in the vehicle treated control group (C). The tumor model used in this assay is A549 Human Adenocarcinoma of Lung with characteristics of Type II Alveolar Epithelial cells (intrarenal inoculation) in NU/NU BALB/C (nude) mice

[1] = dose: 1200.0 mg/kg/injection, vehicle: Klucel (hydroxypropylcellulose) (HPC)
[2] = dose: 300.0 mg/kg/injection, vehicle: saline with Tween-80
[3] = dose: 100.0 mg/kg/injection, vehicle: saline with Tween-80
[4] = dose: 200.0 mg/kg/injection, vehicle: saline with Tween-80
[5] = dose: 600.0 mg/kg/injection, vehicle: saline with Tween-80

## CCOC(=O)/C=C/C(=O)N1CCN(C(=O)/C=C/C(=O)OCC)C(C)C1 (stereo not drawn)
[1]
  survivor count: 0 of 6 on day 12

## C=C(CO)C(=O)OC1CC(=C)C2CC(O)C(=C)C2[C@H]2OC(=O)C(=C)C12 (stereo partly drawn)
dose: 17.5 mg/kg/injection, vehicle: saline + alcohol
  survivor count: 1 of 6 on day 12

## COc1cccc2c1C(CO)N1C(C#N)C3CC(C(=O)O)C(C1C2)N3C (stereo not drawn)
dose: 60.0 mg/kg/injection, vehicle: saline with Tween-80
  survivor count: 3 of 6 on day 12
dose: 120.0 mg/kg/injection, vehicle: saline with Tween-80
  survivor count: 2 of 6 on day 12

## COc1ccc(C[C@@H]2NC[C@@H](O)[C@@H]2OC(C)=O)cc1
[2]
  survivor count: 1 of 4 on day 12

## COc1cc(C(C)c2cc3c(cc2OCCO)OCO3)cc(OC)c1OC (stereo not drawn)
dose: 500.0 mg/kg/injection, vehicle: suspension in saline
  survivor count: 3 of 6 on day 12
dose: 1000.0 mg/kg/injection, vehicle: suspension in saline
  survivor count: 0 of 6 on day 12

## Oc1c(Cl)cc(Cl)cc1C=NCCSc1ccc(Cl)cc1
[1]
  survivor count: 2 of 6 on day 12

## CCOC(=O)c1ccc(NN=NCCF)cc1
dose: 600.0 mg/kg/injection, vehicle: distilled water + Tween-80 + alcohol
  survivor count: 3 of 5 on day 12

## CCOC(=O)/N=[N+](\[O-])c1ccccc1
[3]
  survivor count: 0 of 6 on day 12

## O=C1C=C(N2CC2)C(=O)C(N2CC2)=C1N1CC1
dose: 400.0 micrograms/kg/injection, vehicle: saline + alcohol
  survivor count: 2 of 6 on day 12
dose: 400.0 micrograms/kg/injection, vehicle: saline
  survivor count: 1 of 6 on day 12
dose: 666.66 micrograms/kg/injection, vehicle: saline + alcohol
  survivor count: 0 of 6 on day 12

## CCC(=O)[O][Bi]([c]1ccccc1)[c]1ccccc1
dose: 50.0 mg/kg/injection, vehicle: Klucel (hydroxypropylcellulose) (HPC)
  survivor count: 0 of 6 on day 12

## C=C(Cl)C(=NC(C)(C)C)Nc1ccccc1C
dose: 40.0 mg/kg/injection, vehicle: Klucel + Tween-80
  survivor count: 3 of 6 on day 12
dose: 75.0 mg/kg/injection, vehicle: Klucel + Tween-80
  survivor count: 0 of 6 on day 12
dose: 80.0 mg/kg/injection, vehicle: Klucel + Tween-80
  survivor count: 0 of 6 on day 12
dose: 150.0 mg/kg/injection, vehicle: Klucel + Tween-80
  survivor count: 0 of 6 on day 12
dose: 300.0 mg/kg/injection, vehicle: Klucel + Tween-80
  survivor count: 0 of 6 on day 12
dose: 600.0 mg/kg/injection, vehicle: Klucel + Tween-80
  survivor count: 0 of 6 on day 12

## CCCCOCN(COCCCC)C12CC3CC(CC(C3)C1)C2
[4]
  T/C: 142 % of control [5 of 6 alive on day 12]
dose: 800.0 mg/kg/injection, vehicle: saline with Tween-80
  T/C: 130 % of control [4 of 6 alive on day 12]

## Cc1ccc(C2=CSC3=NCCN23)cc1Cl
dose: 10.0 mg/kg/injection, vehicle: saline
  T/C: 149 % of control
dose: 40.0 mg/kg/injection, vehicle: suspension in saline
  survivor count: 1 of 6 on day 12

## C=Cc1cc(OC)c2c(c1)c(=O)oc1c2cc(OC)c2c(O)ccc(C3OC(C)C(O)C(C)(O)C3O)c21 (stereo not drawn)
dose: 75.0 mg/kg/injection, vehicle: DMSO
  survivor count: 3 of 6 on day 12
dose: 150.0 mg/kg/injection, vehicle: DMSO
  survivor count: 3 of 6 on day 12
dose: 600.0 mg/kg/injection, vehicle: DMSO
  survivor count: 1 of 6 on day 12

## CC1Oc2cc3c(-c4c(O)cc(O)c5c(O)c6c(cc45)OC(C)C(C)C6=O)c(O)cc(O)c3c(O)c2C(=O)C1C (stereo not drawn)
dose: 3.0 mg/kg/injection, vehicle: suspension in saline
  T/C: 126 % of control
dose: 12.0 mg/kg/injection, vehicle: suspension in saline
  survivor count: 1 of 6 on day 12

## C=C1c2cccc(O)c2C(O)=C2C(=O)[C@]3(O)C(O)=C(C(N)=O)C(=O)[C@@H](N(C)C)[C@@H]3[C@@H](O)[C@H]12
dose: 150.0 mg/kg/injection, vehicle: Klucel (hydroxypropylcellulose) (HPC)
  survivor count: 3 of 6 on day 12
dose: 300.0 mg/kg/injection, vehicle: Klucel (hydroxypropylcellulose) (HPC)
  survivor count: 0 of 6 on day 12
dose: 600.0 mg/kg/injection, vehicle: Klucel (hydroxypropylcellulose) (HPC)
  survivor count: 0 of 6 on day 12

## CNC(=O)OCc1nc(SC)n(C)c1COC(=O)NC
dose: 50.0 mg/kg/injection, vehicle: saline
  survivor count: 0 of 6 on day 12
dose: 100.0 mg/kg/injection, vehicle: saline
  survivor count: 0 of 6 on day 12
dose: 200.0 mg/kg/injection, vehicle: saline
  survivor count: 0 of 6 on day 12

## C[n+]1c(-c2ccc(NC(=O)c3ccc(C(=O)Nc4ccc(-c5cn6ccccc6[n+]5C)cc4)cc3)cc2)cn2ccccc21
dose: 50.0 mg/kg/injection, vehicle: saline with Tween-80
  survivor count: 2 of 6 on day 12
[3]
  survivor count: 0 of 6 on day 12
[4]
  survivor count: 0 of 6 on day 12

## COc1cccc(Sc2ccc([N+](=O)[O-])c3no[n+]([O-])c23)c1
[2]
  survivor count: 2 of 6 on day 12
[5]
  survivor count: 1 of 6 on day 12

## CCCCNP1(NCCCC)=NP(NCCCC)(NCCCC)=NP(NCCCC)(NCCCC)=NP(NCCCC)(NCCCC)=N1
[5]
  survivor count: 0 of 6 on day 12
dose: 1200.0 mg/kg/injection, vehicle: saline with Tween-80
  survivor count: 0 of 6 on day 12

## CC(/C=C/C=C/C=C/C=C/C=C/C(O)=C1/C(=O)C(CCC(=O)O)N(C)C1=O)=C\C(C)C(OC1CC(O)C(O)C(C)O1)C(C)C (stereo not drawn)
dose: 208.0 mg/kg/injection, vehicle: water
  survivor count: 0 of 6 on day 12
dose: 347.0 mg/kg/injection, vehicle: water
  survivor count: 0 of 6 on day 12

## CC[C@@]1(O)C(=O)OCc2c1cc1n(c2=O)Cc2cc3ccccc3nc2-1
dose: 16.7 mg/kg/injection, vehicle: saline with Tween-80
  survivor count: 3 of 6 on day 12
dose: 20.0 mg/kg/injection, vehicle: saline with Tween-80
  survivor count: 2 of 6 on day 12
dose: 27.8 mg/kg/injection, vehicle: saline with Tween-80
  survivor count: 1 of 6 on day 12
dose: 40.0 mg/kg/injection, vehicle: saline with Tween-80
  survivor count: 0 of 6 on day 12
dose: 54.0 mg/kg/injection, vehicle: saline with Tween-80
  survivor count: 0 of 6 on day 12
dose: 80.0 mg/kg/injection, vehicle: saline with Tween-80
  survivor count: 0 of 6 on day 12
dose: 90.0 mg/kg/injection, vehicle: saline with Tween-80
  survivor count: 0 of 6 on day 12
dose: 150.0 mg/kg/injection, vehicle: saline with Tween-80
  survivor count: 0 of 6 on day 12
dose: 250.0 mg/kg/injection, vehicle: saline with Tween-80
  survivor count: 0 of 6 on day 12

From PubChem BioAssay AID278 (DTP/NCI, 2004)
